Publication doi:10.1101/2025.04.07.647595
For at least one entry, the source does not settle the construct or the ends of the probe. At least one verdict rests on a figure or table, not on a statement of the authors. Where a protein sequence is shown, tags need not be part of it.

Experiments:
Sxl-dRBD5 = target: T1, Sxl-dRBD5 (UniProt P19339); experiment: ITC; conditions: 298 K, tighter than dRBD3, value only in figure, residues 122-305
T1 sequence (looked up): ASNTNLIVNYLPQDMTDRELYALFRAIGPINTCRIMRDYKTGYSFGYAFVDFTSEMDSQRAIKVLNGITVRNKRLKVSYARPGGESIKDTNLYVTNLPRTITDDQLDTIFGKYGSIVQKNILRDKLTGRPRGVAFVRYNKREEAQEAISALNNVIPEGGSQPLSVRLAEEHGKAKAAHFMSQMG

Sxl-dRBD3 = target: T2, Sxl-dRBD3 (UniProt P19339); experiment: ITC; conditions: 298 K, value only in figure, residues 123-294
T2 sequence (looked up): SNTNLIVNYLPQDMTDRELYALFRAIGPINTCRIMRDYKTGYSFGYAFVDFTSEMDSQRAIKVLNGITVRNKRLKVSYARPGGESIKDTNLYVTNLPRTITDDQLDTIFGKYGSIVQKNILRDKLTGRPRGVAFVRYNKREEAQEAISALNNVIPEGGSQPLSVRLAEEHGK

Measured: binding result

UUUUUUUUUU [U10-mer RNA]
binds: Sxl-dRBD5; 50 mM KCl | Sxl-dRBD5; 150 mM KCl | Sxl-dRBD3; 50 mM KCl | Sxl-dRBD3; 150 mM KCl
